Measured values reported in the supplement of paper PMC7666118.
The other results are listed elsewhere or left out.

Chains of the proteins cited; added tags and fusions are not shown. Lines headed by an entry give the natural chain unless they say otherwise; changes in a name come on top.
UniProt Q9HBI0: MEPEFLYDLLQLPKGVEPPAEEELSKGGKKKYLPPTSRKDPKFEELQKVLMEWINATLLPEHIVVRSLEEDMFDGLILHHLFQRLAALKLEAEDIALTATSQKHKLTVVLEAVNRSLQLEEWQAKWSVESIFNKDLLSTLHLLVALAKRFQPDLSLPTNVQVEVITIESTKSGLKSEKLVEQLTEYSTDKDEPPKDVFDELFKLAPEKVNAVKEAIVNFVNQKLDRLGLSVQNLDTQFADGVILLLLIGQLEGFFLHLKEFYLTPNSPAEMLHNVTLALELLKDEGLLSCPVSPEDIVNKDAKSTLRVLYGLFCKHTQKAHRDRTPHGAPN
UniProt P56589: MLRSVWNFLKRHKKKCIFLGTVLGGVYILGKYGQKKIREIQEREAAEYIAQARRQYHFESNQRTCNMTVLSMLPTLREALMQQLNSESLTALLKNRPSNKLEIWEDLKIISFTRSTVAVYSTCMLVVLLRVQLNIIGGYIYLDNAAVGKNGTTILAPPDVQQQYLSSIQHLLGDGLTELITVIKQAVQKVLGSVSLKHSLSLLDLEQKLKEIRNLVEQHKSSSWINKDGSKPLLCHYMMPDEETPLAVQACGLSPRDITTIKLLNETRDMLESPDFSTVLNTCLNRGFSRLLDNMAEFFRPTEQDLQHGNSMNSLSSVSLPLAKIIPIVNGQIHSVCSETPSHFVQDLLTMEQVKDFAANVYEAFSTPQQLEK
UniProt Q56VL3: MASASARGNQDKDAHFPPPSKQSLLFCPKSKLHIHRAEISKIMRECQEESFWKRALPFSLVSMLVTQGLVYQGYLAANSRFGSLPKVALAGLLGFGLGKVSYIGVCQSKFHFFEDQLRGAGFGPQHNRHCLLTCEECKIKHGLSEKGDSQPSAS
UniProt P51003: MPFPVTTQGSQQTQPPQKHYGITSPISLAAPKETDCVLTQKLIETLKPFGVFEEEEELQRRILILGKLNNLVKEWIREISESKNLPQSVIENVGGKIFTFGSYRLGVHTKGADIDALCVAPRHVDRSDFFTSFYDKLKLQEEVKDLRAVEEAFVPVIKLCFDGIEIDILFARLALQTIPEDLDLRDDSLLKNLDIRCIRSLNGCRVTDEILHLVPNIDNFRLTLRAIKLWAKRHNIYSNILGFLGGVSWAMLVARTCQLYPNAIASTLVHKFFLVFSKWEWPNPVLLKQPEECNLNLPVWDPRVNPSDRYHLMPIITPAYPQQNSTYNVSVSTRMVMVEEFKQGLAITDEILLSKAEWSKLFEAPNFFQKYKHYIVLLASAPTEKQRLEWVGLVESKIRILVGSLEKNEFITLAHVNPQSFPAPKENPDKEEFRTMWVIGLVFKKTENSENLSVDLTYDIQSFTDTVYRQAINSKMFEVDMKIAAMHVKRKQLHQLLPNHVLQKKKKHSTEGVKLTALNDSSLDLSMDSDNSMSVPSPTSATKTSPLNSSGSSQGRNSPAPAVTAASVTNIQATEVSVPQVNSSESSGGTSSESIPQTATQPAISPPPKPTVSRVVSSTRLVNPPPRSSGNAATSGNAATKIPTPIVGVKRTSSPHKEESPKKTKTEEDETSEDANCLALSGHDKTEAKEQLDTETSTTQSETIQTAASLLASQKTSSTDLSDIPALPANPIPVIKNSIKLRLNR
UniProt P55809: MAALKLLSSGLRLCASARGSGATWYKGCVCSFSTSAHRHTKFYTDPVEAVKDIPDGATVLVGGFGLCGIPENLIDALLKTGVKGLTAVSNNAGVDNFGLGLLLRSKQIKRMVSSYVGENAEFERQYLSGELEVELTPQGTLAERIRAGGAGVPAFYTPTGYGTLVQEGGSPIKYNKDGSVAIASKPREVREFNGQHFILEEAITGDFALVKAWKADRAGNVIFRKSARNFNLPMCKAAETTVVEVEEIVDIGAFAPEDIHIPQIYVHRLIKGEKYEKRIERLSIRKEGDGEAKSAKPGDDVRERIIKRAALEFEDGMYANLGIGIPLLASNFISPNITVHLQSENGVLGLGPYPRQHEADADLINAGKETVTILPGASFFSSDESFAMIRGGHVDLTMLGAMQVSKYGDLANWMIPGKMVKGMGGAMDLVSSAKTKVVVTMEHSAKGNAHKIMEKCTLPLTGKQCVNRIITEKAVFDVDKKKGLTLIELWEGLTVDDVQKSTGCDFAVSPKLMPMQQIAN
UniProt O43924: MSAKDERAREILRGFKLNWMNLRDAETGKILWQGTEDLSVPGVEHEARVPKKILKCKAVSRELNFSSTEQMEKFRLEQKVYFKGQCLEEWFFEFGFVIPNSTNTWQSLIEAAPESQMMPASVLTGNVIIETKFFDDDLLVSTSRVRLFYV
UniProt Q86VP3, whole entry: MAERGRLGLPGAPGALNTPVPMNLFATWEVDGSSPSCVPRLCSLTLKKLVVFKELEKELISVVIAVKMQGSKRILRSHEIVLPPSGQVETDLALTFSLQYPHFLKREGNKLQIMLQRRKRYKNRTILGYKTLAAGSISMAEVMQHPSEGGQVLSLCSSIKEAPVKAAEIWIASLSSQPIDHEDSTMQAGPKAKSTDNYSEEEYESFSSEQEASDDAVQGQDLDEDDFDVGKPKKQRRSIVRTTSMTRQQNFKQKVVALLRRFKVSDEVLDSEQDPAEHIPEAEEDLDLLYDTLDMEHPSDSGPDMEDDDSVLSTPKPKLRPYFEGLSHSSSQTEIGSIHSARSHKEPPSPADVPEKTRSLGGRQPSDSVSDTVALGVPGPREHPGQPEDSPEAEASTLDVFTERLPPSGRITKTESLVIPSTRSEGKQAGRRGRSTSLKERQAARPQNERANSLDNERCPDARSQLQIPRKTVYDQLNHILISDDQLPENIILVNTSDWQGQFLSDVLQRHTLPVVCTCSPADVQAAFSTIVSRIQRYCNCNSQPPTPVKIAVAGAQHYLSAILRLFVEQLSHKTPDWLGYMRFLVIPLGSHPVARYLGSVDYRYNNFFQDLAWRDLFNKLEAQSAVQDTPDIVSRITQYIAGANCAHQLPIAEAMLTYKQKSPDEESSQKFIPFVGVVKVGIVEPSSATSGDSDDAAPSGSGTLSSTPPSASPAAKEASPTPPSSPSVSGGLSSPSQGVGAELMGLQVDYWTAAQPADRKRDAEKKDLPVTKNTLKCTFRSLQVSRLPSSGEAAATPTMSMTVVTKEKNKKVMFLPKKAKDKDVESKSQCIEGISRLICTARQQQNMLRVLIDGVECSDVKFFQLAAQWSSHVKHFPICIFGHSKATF
UniProt P11926: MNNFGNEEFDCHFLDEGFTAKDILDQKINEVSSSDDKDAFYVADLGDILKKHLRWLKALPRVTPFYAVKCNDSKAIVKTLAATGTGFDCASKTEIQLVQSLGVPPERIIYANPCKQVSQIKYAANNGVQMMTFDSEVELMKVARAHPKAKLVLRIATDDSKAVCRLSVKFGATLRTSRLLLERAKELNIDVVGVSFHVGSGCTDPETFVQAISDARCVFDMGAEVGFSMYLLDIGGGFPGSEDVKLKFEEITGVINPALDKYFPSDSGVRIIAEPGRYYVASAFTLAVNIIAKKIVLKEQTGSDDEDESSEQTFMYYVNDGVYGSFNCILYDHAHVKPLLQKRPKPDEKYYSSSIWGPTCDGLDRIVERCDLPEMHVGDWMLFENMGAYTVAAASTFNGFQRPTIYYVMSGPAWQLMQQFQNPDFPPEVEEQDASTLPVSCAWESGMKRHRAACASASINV
UniProt O75694: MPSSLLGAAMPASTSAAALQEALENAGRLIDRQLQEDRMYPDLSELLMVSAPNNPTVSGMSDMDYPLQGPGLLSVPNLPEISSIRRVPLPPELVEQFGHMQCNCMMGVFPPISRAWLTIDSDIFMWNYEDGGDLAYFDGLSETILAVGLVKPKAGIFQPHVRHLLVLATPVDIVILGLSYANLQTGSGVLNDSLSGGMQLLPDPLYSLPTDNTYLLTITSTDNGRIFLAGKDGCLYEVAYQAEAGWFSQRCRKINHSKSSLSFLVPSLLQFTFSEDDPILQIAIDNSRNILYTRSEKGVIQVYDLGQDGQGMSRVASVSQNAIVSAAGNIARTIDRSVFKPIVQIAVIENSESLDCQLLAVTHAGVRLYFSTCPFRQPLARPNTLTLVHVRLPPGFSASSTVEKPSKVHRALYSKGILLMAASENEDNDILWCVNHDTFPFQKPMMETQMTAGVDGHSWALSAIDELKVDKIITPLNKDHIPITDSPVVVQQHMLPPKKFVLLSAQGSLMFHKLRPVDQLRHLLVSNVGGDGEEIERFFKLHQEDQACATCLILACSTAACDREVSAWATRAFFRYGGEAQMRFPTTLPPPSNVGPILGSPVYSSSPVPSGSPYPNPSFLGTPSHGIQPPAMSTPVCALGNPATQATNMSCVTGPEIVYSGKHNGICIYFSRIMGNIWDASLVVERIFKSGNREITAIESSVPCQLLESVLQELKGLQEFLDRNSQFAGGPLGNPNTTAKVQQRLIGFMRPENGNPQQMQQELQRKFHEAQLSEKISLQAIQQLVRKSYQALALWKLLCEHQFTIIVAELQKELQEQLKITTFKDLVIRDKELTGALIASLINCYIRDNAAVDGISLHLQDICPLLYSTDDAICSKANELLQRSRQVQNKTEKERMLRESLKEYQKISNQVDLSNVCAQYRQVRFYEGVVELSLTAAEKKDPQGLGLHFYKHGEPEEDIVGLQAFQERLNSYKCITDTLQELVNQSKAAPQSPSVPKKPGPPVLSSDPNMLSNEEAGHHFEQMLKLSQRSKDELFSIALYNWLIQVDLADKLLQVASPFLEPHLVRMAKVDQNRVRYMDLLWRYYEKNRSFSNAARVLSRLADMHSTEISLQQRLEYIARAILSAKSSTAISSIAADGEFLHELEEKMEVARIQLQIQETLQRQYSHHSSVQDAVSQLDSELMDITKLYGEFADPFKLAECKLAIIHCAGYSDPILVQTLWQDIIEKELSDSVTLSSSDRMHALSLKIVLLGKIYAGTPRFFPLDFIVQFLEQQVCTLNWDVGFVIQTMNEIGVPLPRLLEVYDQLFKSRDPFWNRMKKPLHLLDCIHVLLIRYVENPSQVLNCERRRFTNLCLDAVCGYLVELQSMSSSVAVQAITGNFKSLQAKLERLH
UniProt Q99571: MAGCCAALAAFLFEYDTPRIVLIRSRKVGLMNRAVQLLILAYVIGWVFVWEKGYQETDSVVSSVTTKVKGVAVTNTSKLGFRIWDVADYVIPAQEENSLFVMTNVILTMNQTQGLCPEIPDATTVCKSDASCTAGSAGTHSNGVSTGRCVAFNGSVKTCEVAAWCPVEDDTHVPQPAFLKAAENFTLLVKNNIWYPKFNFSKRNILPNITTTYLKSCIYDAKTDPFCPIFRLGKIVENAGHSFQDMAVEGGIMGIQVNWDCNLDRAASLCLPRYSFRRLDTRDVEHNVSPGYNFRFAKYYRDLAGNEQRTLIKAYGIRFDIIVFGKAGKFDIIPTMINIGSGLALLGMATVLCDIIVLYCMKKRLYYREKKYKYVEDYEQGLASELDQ
UniProt P43034: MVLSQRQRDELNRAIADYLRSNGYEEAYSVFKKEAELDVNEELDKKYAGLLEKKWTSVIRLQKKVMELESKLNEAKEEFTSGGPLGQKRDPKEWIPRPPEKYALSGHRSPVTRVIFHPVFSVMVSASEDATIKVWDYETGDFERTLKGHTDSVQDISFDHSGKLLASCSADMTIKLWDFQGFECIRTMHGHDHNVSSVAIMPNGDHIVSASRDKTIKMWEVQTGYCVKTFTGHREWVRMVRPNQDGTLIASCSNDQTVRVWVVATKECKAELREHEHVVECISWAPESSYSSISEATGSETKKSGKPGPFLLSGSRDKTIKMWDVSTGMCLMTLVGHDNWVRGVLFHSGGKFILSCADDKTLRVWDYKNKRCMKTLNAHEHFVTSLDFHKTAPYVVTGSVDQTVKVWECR
UniProt P22234: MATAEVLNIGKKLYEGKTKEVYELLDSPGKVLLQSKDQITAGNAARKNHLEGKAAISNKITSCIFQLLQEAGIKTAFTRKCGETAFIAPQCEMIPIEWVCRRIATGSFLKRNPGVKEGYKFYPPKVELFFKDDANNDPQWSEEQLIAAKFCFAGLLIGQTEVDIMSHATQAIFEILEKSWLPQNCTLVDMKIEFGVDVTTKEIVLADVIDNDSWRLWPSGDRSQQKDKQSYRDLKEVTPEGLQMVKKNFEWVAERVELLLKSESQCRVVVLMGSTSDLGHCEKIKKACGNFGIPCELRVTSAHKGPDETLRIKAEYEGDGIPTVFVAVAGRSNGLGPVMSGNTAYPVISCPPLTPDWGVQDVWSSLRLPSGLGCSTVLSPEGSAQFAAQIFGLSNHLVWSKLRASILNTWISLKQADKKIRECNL
UniProt Q96IY1: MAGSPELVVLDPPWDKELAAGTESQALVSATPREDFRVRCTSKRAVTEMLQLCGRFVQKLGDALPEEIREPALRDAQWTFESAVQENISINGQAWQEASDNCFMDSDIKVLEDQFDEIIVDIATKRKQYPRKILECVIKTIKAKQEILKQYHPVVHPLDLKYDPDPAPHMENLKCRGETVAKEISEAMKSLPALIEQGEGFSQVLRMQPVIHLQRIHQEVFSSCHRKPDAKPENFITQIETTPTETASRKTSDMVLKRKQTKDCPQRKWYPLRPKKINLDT

What follows are targets tested with COc1ccc(Cn2ccc3ccc(C(=O)NO)cc32)cc1 (assay: dose-dependent thermal stabilisation call (2D-TPP, DLPTP, 10% FDR) (binary (1 = stabilised)); higher = stabilised by the compound). Details: system: HL-60 intact cells; concentration range 0.04-10 µM.

Target | dose-dependent thermal stabilisation call
PFKP (UniProt Q01813) | inactive: 0
NUP205 (UniProt Q92621) | inactive: 0
PARVG (UniProt Q9HBI0) | inactive: 0
PEX3 (UniProt P56589) | inactive: 0
PCYOX1 (UniProt Q9UHG3) | inactive: 0
P2RX7 (UniProt Q99572) | inactive: 0
PATZ1 (UniProt Q9HBE1) | inactive: 0
OPLAH (UniProt O14841) | inactive: 0
PCBD1 (UniProt P61457) | inactive: 0
OCIAD2 (UniProt Q56VL3) | inactive: 0
NUP88 (UniProt Q99567) | inactive: 0
PAPOLA (UniProt P51003) | inactive: 0
PAN2 (UniProt Q504Q3) | inactive: 0
OXCT1 (UniProt P55809) | inactive: 0
PDE6D (UniProt O43924) | inactive: 0
NSUN4 (UniProt Q96CB9) | inactive: 0
PACS2 (UniProt Q86VP3) | inactive: 0
NUF2 (UniProt Q9BZD4) | inactive: 0
ODC1 (UniProt P11926) | inactive: 0

Target | dose-dependent thermal stabilisation call
NUDT18 (UniProt Q6ZVK8) | inactive: 0
NSMCE1 (UniProt Q8WV22) | inactive: 0
PDCD2L (UniProt Q9BRP1) | inactive: 0
NUP155 (UniProt O75694) | inactive: 0
PAK1 (UniProt Q13153) | inactive: 0
NUBP2 (UniProt Q9Y5Y2) | inactive: 0
NUP37 (UniProt Q8NFH4) | active: 1
NUCB2 (UniProt P80303) | inactive: 0
PEX7 (UniProt O00628) | inactive: 0
OCIAD1 (UniProt Q9NX40) | inactive: 0
PATL1 (UniProt Q86TB9) | inactive: 0
NUP160 (UniProt Q12769) | inactive: 0
P2RX4 (UniProt Q99571) | inactive: 0
PAFAH1B1 (UniProt P43034) | inactive: 0
OSTC (UniProt Q9NRP0) | inactive: 0
OTUD4 (UniProt Q01804) | inactive: 0
PAICS (UniProt P22234) | inactive: 0
NSL1 (UniProt Q96IY1) | inactive: 0

Given as a markdown table: entries from further up.

| Target | dose-dependent thermal stabilisation call |
| --- | --- |
| NUP37 (UniProt Q8NFH4) | active: 1 |
| NUCB2 (UniProt P80303) | inactive: 0 |
| PEX7 (UniProt O00628) | inactive: 0 |
| OCIAD1 (UniProt Q9NX40) | inactive: 0 |
| PATL1 (UniProt Q86TB9) | inactive: 0 |
| NUP160 (UniProt Q12769) | inactive: 0 |
| P2RX4 (UniProt Q99571) | inactive: 0 |
| PAFAH1B1 (UniProt P43034) | inactive: 0 |
| OSTC (UniProt Q9NRP0) | inactive: 0 |
| OTUD4 (UniProt Q01804) | inactive: 0 |
| PAICS (UniProt P22234) | inactive: 0 |
